PubChem BioAssay AID652243, Drosophila RNAi Screening Center | 2013
Screen: 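Knock-downs that decrease or increase androgen receptor reporter signal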 (primary screen). Cell system: Drosophila S2R+ cells. Reagents: long dsRNA against Drosophila genes. Timing: 72 h (48 h, then 24 h hormone). Challenge: synthetic androgen R1881 at 10 nM for 24 h. Read-out: 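Firefly light from an androgen-responsive reporter and Renilla control light per well, raw and unnormalised, for each of two replicates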. Direction: firefly reporter light: higher = more light from androgen-responsive reporter; Renilla control light: higher = more constitutive control signal (cell number, transfection). Rule for the call: 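Hit when the log firefly-to-Renilla ratio dropped or increased by a fixed fold versus the mean of GFP or LacZ controls across duplicate plates; lowering cut given as 1.5 and as 3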. Meaning of the calls: active = hit: reporter lowered or raised; inactive = no hit.
In all, the deposit lists about 24,000 reagents; below is an unselected part of those with a known target gene and a result. Over the whole deposit, 246 (1%) are marked active. 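Plates not normalised; calls are printed but the firefly/Renilla ratio behind them is not deposited; fold cut for lowering reported inconsistently.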 Raw values are not corrected between plates. Reagent sequences are not shown. The record does not give: the amount of reagent.

Target gene	PubChem SID	firefly reporter light, replicate 1	firefly reporter light, replicate 2	Renilla control light, replicate 1	Renilla control light, replicate 2	Outcome
CG18231	SID104190099	3.25e5	2.18e5	1.87e6	2.26e6	inactive
CR33629	SID104215414	1.20e6	1.13e6	2.21e6	2.44e6	inactive
CG10657	SID104189560	2.95e5	3.16e5	1.79e6	1.42e6	inactive
CG10657	SID104206027	4.40e5	3.60e5	6.52e5	4.63e5	inactive
CG33306	SID104181691	8.46e5	6.71e5	1.04e6	1.29e6	inactive
CG33306	SID104207731	4.03e5	8.63e5	1.71e6	1.47e6	inactive
AgmNAT	SID104197864	1.58e5	1.70e5	1.41e6	2.51e6	inactive
mtTFB2	SID104195311	66077	74150	1.34e6	1.19e6	inactive
CG16756	SID104197907	2.69e5	2.28e5	1.71e6	1.82e6	inactive
CG13950	SID104180160	71298	1.17e5	8.17e5	1.02e6	inactive
CG13950	SID104205949	2.15e5	3.32e5	5.86e5	5.76e5	inactive
PGRP-SB1	SID104190882	2.11e5	1.27e5	1.64e6	1.42e6	inactive
Cpr49Ab	SID104185133	1.08e5	1.67e5	3.64e5	3.67e5	inactive
Cpr49Ab	SID104203580	7.04e5	8.34e5	9.00e5	8.92e5	inactive
mld	SID104193473	15871	14901	78153	1.06e5	inactive
mld	SID104194414	79120	86132	4.50e5	4.81e5	inactive
mld	SID104202731	7.66e5	6.82e5	8.95e5	9.96e5	inactive
CG33752	SID104216449	1.05e6	7.48e5	1.83e6	1.19e6	inactive
Fis1	SID104187564	1.17e5	1.71e5	1.59e6	1.96e6	inactive
CG42566	SID104183741	6.78e5	6.13e5	1.29e6	1.09e6	inactive
loh	SID104180914	1.93e5	2.29e5	5.29e5	5.09e5	inactive
loh	SID104182735	3.35e5	2.76e5	2.04e6	1.84e6	inactive
COX6B	SID104199382	52229	54870	3.76e5	4.53e5	inactive
COX6B	SID104205953	1.89e5	1.79e5	4.53e5	4.84e5	inactive
Desi	SID104194701	77287	1.18e5	1.69e6	1.59e6	inactive
Fcp1	SID104183913	5.98e5	6.29e5	9.61e5	9.03e5	inactive
Fcp1	SID104205259	4.16e5	4.40e5	8.40e5	7.10e5	inactive
Fcp1	SID104214457					inactive
Pgant5	SID104182941	3.95e5	6.11e5	7.15e5	8.51e5	inactive
sba	SID104193435	8583	11456	59331	55116	inactive
sba	SID104196842	1.10e5	1.50e5	1.85e6	2.19e6	inactive
sba	SID104204341	2.47e5	3.27e5	7.23e5	6.02e5	inactive
eIF4E7	SID104197574	4.17e5	3.91e5	4.68e6	3.69e6	inactive
eIF4E7	SID104198415	1.87e5	1.92e5	3.28e6	2.26e6	inactive
Hand	SID104182448	2.28e5	3.07e5	1.07e6	1.69e6	inactive
CAH14	SID104184026	3.49e5	4.59e5	3.10e6	3.41e6	inactive
CAH14	SID104201707	1.05e6	8.77e5	2.58e6	1.45e6	inactive
SmD2	SID104192328	47068	28290	2.38e5	3.27e5	inactive
SmD2	SID104207247	7.04e5	4.66e5	1.83e6	1.43e6	inactive
Cyp6v1	SID104200357	2.53e5	1.43e5	7.31e5	4.84e5	inactive
Cyp6v1	SID104207791	6.39e5	6.26e5	1.23e6	1.30e6	inactive
C1GalTA	SID104183038	1.28e6	8.86e5	2.88e6	1.94e6	inactive
CG8159	SID104196184	2.03e5	1.85e5	2.76e6	1.87e6	inactive
CG8159	SID104205969	2.20e5	2.48e5	6.23e5	5.54e5	inactive
CG42360	SID104184016	1.51e5	2.66e5	1.07e6	1.15e6	inactive
tfc	SID104187745	72298	81015	2.92e5	3.91e5	inactive
tfc	SID104187746	41499	1.15e5	2.35e5	2.99e5	inactive
tfc	SID104188418	6.45e5	6.32e5	1.15e6	1.15e6	inactive
tfc	SID104201381	7.09e5	7.01e5	3.11e6	2.32e6	inactive
tfc	SID104202873	8.58e5	8.22e5	8.28e5	1.00e6	inactive
CG7849	SID104184687	2.95e5	3.63e5	1.66e6	1.81e6	inactive
CG7849	SID104205001	3.01e5	2.93e5	5.69e5	6.11e5	inactive
Klp64D	SID104190996	1.96e5	2.78e5	2.29e6	3.64e6	inactive
CG10211	SID104181819	1.38e5	1.08e5	1.21e6	1.44e6	inactive
CG10211	SID104207219	4.24e5	2.92e5	2.00e6	1.56e6	inactive
CG14626	SID104198423	1.67e5	1.37e5	2.39e6	1.69e6	inactive
CG14626	SID104206330	1.92e5	2.10e5	2.38e5	5.74e5	inactive
CG11060	SID104185821	1.09e6	6.85e5	2.56e6	2.02e6	inactive
